The other results are listed elsewhere or left out.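 Rule for the calls: active = dose-dependent thermal stabilisation significant by F-test of dose-response against flat model at 10% FDR; inactive = not significant.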
Compound: Nc1nc2c(ncn2[C@@H]2O[C@H](COP(=O)(O)OP(=O)(O)OP(=O)(O)O)[C@@H](O)[C@H]2O)c(=O)[nH]1
Assay: dose-dependent thermal stabilisation call (2D-TPP, DLPTP, 10% FDR) (binary (1 = stabilised)); higher = stabilised by the compound
Settings: system: Jurkat gel-filtered lysate; concentration range 1-500 µM
Experimental: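 2D thermal proteome profiling in gel-filtered Jurkat E6.1 lysate (2 mg/ml) treated with NaGTP (0, 1, 10, 100, 500 uM) for 10 min at room temperature, then heated 3 min at one of 12 temperatures (42-63.9 C). Soluble protein was quantified by TMT10 MS. The value is the DLPTP call of the paper: dose-dependent thermal stabilisation over all temperatures at 10% FDR (F-test of a dose-response against a flat model); one experiment, one call per tested protein.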

By UniProt entry, the sequences of proteins in these tests, tags left out. Where a name states a change or a piece, a line headed by the entry shows the natural chain unless it says otherwise.
UniProt Q9NU19: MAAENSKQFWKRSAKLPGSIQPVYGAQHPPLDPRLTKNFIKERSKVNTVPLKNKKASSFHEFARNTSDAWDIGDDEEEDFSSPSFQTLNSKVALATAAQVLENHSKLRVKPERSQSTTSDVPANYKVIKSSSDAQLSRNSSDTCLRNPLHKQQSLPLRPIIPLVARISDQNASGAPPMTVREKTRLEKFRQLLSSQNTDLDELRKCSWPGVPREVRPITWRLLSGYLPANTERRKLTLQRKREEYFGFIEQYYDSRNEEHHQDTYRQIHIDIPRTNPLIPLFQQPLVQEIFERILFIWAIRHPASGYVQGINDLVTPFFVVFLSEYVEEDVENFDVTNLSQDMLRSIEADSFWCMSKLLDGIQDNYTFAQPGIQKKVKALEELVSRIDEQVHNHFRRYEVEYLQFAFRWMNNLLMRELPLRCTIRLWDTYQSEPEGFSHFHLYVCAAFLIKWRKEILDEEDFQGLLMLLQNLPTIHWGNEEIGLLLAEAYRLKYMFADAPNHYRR
UniProt Q86W42: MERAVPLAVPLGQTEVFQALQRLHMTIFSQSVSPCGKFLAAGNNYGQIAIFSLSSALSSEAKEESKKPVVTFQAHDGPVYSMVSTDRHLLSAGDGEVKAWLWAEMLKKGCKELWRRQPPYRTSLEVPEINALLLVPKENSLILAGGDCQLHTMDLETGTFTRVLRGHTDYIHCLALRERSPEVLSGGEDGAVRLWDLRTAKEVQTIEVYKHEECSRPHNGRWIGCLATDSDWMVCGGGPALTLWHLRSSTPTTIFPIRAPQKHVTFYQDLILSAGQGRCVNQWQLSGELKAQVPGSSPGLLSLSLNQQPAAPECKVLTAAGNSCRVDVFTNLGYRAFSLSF
UniProt P17987, whole entry: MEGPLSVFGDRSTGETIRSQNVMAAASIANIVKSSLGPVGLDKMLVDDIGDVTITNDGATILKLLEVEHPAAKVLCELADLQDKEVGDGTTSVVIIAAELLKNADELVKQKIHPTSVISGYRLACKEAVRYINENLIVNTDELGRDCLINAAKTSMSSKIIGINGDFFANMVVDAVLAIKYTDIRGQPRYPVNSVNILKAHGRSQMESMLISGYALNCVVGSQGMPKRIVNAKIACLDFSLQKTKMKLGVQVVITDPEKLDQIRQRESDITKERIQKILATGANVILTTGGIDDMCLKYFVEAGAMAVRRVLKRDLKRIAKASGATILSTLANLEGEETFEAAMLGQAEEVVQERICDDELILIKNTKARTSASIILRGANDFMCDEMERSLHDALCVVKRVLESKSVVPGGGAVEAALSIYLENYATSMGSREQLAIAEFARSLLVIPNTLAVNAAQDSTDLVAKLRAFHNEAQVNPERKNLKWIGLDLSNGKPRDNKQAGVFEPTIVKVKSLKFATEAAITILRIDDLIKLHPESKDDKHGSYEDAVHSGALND
UniProt P28908: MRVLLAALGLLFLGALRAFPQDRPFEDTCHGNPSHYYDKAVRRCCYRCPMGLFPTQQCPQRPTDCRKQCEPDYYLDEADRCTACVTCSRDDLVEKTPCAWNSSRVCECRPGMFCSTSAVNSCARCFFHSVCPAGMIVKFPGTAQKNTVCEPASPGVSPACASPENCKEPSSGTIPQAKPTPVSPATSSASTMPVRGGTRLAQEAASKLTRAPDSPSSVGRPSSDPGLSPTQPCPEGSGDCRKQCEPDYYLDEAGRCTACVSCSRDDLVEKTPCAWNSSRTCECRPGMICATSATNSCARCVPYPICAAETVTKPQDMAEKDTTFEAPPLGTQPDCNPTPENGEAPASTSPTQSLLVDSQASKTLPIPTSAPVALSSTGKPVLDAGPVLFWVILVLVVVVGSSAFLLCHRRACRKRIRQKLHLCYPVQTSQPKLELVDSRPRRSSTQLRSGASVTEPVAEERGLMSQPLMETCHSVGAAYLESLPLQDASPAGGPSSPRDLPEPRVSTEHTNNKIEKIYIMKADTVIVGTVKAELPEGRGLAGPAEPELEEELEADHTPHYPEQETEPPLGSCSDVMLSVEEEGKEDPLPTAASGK
UniProt Q9NUW8, whole entry: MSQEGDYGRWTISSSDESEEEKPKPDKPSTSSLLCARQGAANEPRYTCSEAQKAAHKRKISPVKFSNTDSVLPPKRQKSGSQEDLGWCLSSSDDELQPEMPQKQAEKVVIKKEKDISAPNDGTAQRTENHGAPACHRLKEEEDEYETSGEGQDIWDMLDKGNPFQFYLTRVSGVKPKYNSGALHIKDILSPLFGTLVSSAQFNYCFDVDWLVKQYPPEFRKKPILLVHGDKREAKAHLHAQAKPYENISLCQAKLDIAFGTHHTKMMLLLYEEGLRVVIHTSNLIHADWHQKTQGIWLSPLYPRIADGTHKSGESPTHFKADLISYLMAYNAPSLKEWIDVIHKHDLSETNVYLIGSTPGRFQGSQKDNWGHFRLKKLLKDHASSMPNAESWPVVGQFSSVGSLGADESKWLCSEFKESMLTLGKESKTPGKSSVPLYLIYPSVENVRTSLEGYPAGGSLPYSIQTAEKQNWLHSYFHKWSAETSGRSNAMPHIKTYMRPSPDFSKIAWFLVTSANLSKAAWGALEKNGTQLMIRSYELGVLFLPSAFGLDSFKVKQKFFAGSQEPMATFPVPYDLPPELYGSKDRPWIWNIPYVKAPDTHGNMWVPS
UniProt Q9BW92: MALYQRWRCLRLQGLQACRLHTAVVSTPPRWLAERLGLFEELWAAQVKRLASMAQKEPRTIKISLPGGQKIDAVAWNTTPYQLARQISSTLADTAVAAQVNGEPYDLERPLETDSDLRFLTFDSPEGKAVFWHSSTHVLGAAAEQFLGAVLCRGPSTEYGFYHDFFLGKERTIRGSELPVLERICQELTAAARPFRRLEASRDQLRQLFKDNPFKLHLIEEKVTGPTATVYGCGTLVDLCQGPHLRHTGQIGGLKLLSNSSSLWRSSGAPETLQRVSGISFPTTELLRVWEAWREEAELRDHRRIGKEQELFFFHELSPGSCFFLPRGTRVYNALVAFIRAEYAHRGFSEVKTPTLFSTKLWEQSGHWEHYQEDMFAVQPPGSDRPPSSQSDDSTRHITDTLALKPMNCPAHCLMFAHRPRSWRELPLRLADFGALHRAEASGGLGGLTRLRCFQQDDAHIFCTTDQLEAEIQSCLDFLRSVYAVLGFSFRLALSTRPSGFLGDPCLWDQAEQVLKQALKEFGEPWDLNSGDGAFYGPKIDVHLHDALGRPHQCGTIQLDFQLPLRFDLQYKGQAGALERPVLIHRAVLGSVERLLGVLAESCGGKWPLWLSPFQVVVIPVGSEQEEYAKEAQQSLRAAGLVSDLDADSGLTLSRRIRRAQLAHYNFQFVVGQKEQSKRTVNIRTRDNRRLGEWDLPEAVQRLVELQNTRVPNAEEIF
UniProt Q9H6P5: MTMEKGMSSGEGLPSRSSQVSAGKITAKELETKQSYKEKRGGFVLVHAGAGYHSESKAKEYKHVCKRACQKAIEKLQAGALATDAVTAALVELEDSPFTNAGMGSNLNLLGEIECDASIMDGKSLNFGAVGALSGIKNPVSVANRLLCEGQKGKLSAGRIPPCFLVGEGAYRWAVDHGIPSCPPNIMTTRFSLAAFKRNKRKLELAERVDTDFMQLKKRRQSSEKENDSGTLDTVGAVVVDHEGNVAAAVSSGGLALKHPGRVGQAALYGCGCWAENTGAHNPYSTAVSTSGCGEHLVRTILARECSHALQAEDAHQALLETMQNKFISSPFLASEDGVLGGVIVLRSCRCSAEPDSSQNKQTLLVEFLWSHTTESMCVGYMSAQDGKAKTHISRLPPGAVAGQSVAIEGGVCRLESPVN
UniProt P55327: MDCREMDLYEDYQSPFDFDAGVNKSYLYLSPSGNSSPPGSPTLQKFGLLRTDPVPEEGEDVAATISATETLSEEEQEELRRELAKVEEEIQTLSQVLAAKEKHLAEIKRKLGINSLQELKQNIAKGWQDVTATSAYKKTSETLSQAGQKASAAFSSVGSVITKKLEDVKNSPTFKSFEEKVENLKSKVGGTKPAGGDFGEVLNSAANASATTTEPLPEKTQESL
UniProt Q8NFU3: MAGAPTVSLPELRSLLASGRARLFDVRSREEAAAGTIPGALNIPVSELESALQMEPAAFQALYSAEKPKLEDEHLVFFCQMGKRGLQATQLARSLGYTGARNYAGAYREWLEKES
UniProt Q9BSV6: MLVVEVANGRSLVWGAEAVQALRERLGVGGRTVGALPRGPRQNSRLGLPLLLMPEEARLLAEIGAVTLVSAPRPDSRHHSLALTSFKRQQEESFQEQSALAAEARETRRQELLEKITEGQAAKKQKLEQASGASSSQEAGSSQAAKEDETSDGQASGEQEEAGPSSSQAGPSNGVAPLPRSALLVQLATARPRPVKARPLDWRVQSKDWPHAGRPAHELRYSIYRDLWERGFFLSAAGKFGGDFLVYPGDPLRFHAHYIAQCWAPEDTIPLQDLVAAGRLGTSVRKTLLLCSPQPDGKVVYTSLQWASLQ
UniProt P07437, whole entry: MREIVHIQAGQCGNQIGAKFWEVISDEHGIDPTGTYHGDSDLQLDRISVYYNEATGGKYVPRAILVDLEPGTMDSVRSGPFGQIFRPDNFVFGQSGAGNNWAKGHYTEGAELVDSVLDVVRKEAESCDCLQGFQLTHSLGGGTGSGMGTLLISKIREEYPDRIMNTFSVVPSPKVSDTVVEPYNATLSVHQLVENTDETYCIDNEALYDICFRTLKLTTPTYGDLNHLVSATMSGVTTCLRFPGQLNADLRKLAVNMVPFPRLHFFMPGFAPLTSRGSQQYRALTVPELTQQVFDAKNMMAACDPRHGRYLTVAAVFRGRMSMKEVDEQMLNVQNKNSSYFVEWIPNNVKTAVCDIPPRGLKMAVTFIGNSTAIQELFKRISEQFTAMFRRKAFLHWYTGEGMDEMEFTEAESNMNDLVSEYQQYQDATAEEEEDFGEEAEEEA
UniProt O14776: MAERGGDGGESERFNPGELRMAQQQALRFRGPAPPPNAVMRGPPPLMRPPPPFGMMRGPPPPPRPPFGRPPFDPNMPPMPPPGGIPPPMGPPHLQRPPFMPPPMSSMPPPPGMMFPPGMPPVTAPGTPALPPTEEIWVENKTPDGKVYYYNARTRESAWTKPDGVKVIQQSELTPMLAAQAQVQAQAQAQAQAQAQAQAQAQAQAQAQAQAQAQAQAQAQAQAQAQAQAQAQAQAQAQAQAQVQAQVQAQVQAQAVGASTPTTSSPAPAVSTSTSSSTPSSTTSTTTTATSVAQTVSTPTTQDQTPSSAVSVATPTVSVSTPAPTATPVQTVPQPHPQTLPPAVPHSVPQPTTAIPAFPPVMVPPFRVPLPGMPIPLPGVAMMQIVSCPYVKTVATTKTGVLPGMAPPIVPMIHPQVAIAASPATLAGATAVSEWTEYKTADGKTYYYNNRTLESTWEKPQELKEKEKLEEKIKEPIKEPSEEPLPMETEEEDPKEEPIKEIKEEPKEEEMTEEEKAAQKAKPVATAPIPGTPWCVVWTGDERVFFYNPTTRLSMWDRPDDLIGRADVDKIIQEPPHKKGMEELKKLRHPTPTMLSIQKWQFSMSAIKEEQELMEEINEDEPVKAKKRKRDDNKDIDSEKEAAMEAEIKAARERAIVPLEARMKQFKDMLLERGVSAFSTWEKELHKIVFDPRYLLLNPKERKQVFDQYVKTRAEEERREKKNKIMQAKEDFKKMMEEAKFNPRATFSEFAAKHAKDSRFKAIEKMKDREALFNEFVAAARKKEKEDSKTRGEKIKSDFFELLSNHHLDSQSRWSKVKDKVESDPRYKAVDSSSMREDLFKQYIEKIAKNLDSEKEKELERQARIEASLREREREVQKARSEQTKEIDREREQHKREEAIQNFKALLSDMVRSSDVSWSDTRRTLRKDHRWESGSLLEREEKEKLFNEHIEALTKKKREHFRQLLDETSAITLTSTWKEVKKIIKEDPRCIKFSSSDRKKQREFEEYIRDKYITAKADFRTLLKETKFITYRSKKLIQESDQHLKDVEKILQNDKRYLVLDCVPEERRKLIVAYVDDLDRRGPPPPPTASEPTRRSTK

dose-dependent thermal stabilisation call, inactive:
U2SURP (UniProt O15042) 0
TMEM237 (UniProt Q96Q45) 0
TTC33 (UniProt Q6PID6) 0
TBC1D22B (UniProt Q9NU19) 0
UBASH3B (UniProt Q8TF42) 0
THOC6 (UniProt Q86W42) 0
TCP1 (UniProt P17987) 0
TNFRSF8 (UniProt P28908) 0
TDP1 (UniProt Q9NUW8) 0
TTC27 (UniProt Q6P3X3) 0
TPD52L2 (UniProt O43399) 0
TRIM25 (UniProt Q14258) 0
TNRC6B (UniProt Q9UPQ9) 0
TARS2 (UniProt Q9BW92) 0
TBC1D24 (UniProt Q9ULP9) 0
TASP1 (UniProt Q9H6P5) 0
TBL1XR1 (UniProt Q9BZK7) 0
TPD52 (UniProt P55327) 0
TRAPPC4 (UniProt Q9Y296) 0
TBP (UniProt P20226) 0
TBC1D13 (UniProt Q9NVG8) 0
TBPL1 (UniProt P62380) 0
TRMT112 (UniProt Q9UI30) 0
TAOK1 (UniProt Q7L7X3) 0
TTK (UniProt P33981) 0
TSTD1 (UniProt Q8NFU3) 0
TSEN34 (UniProt Q9BSV6) 0
THOC3 (UniProt Q96J01) 0
TTC1 (UniProt Q99614) 0
TXNDC5 (UniProt Q8NBS9) 0
TUBB (UniProt P07437) 0
TCERG1 (UniProt O14776) 0

2 records drawn at random from those above, as already listed:
dose-dependent thermal stabilisation call, inactive:
TRMT112 (UniProt Q9UI30) 0
THOC6 (UniProt Q86W42) 0

Next part.

dose-dependent thermal stabilisation call, active:
TRMT61A (UniProt Q96FX7) 1
TPRKB (UniProt Q9Y3C4) 1
TRAF5 (UniProt O00463) 1
TBCD (UniProt Q9BTW9) 1
TARDBP (UniProt Q13148) 1
TUBGCP3 (UniProt Q96CW5) 1
TRMT10A (UniProt Q8TBZ6) 1
TUFM (UniProt P49411) 1
